Results as given in publication PMC10011063.

Protein sequences, listed by entry. Tags and fused reporters are not part of them.
UniProt P63016: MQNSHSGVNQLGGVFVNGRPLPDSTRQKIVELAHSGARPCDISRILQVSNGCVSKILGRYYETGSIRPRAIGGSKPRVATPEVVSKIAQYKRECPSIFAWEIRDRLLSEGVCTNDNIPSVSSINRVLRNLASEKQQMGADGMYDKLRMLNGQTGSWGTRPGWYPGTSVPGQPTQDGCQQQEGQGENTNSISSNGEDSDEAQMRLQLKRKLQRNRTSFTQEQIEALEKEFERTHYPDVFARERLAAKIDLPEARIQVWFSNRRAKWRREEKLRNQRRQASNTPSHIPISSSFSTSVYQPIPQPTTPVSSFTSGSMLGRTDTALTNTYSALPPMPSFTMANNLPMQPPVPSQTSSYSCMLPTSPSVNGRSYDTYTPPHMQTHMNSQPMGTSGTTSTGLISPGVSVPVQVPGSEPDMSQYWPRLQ

Biological target: Paired Box 6 (PAX6) (rat (endogenous in cultured NSCs)) (UniProt P63016)
Experiment: affinity purification with mass spectrometry; immunoprecipitate of PAX6 from NSCs, gel pieces digested with trypsin, LC-MS/MS, Mascot search of a rat protein database

binding: binds
B1: ring finger protein 8 (RNF8) (enzyme, UniProt Q4KLN8 1-487)
chain: MGEPDPLVSGQLAARRSWCLRRLGMDREWLQLEAGSEVTIGRGFSVTYQLISKVCPLMISRNHCVLKQNPEGQWTIMDNKSLNGVWLNRERLAPLQGYCIRKGDHIQLGVPLESKEHAEYEYEVIEEDRESLAPCLAPKNDHTTEKHKGLRTKRKFSSDGVESLPAEGPSDLRCPLAKGSSKPAEPEKLHGKGEAASQPLGCLCPTLASLEASERTAGPHACSTLPKVLELYPKKQKACSPSASQSSLELFKMTMSRMLKLKTQMQEKQIAVLNVKRQARKGSSKKVVRMEKELRDLQSQLYAEQAQQQARVEQLEKTFQEEEQHLQGLEKEQGECDLKQQLLQALQEHRALMEELDRSKKDFEKIIQAKNKELERTKEEKDKVQAQKEEVLSHMNDVLENELQCIICSEYFIEAVTLNCAHSFCSFCISEWMKRKVECPICRKDIESRTNSLVLDNCISKMVERLSSDVKERRSVLIRERRAKRLL

Results are given in words; binding and its absence hold for the method and conditions named. In cells and extracts the contact can be indirect. A yes stands for co-enrichment or nearness to the bait. Other partners may have been found.
